In PMC10290656:

Tests used:
HA-tagged Nrf2 = molecular target: T1, HA-tagged Nrf2 (UniProt Q60795); assay: co-IP; HEK293 cells transfected with FLAG-Trib1 (truncation mutants of Trib1) and HA-tagged Nrf2; immunoprecipitation with anti-HA
T1 sequence: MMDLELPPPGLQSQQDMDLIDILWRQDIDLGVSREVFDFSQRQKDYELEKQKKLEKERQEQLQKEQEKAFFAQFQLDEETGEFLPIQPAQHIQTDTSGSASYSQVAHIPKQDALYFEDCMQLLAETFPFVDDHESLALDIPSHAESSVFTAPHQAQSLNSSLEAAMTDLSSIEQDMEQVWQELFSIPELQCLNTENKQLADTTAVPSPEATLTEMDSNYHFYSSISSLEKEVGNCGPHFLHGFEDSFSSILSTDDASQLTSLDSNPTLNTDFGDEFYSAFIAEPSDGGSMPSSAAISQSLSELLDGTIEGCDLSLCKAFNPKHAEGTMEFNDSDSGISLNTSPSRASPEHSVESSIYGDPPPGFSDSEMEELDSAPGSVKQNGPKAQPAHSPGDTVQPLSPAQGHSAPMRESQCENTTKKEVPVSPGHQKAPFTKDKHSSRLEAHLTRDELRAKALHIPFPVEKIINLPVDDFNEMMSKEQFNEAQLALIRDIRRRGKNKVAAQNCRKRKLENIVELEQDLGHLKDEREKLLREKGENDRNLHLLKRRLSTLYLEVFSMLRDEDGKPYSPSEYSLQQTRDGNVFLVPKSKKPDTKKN

FLAG-tagged Trib1 = molecular target: T2, FLAG-tagged Trib1 (UniProt Q8K4K4); assay: co-IP; HEK293 cells transfected with FLAG-Trib1 and HA-tagged Nrf2 (truncation mutants of Nrf2); immunoprecipitation with anti-FLAG
T2 sequence: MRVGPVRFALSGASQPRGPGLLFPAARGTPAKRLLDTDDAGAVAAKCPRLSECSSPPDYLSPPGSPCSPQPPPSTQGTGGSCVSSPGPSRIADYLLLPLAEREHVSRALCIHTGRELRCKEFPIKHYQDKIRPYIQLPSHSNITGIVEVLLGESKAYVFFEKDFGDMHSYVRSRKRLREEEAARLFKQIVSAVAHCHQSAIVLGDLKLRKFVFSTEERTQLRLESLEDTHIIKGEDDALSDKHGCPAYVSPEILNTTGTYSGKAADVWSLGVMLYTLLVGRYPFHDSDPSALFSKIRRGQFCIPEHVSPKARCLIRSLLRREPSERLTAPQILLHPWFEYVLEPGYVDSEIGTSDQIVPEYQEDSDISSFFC

Row | binding (HA-tagged Nrf2) | binding (FLAG-tagged Trib1) | Substance
1 | binds |  | FLAG-tagged Trib1 C-terminal domain (truncation mutant) (domain or fragment)
2 |  | binds | HA-tagged Nrf2 C-terminal domain containing the NLS (truncation mutant) (domain or fragment)
3 |  | no binding | HA-tagged Nrf2 N-terminal domain (truncation mutant) (domain or fragment)
4 |  | no binding | HA-tagged Nrf2 central domain (truncation mutant) (domain or fragment)

These are yes or no findings as the source states them, for the method shown. Binding seen in cells or lysates may run through a third protein. Binding calls can cover weak binding; strength is not graded here. Sequences can lack the tags named with a protein.
